Some of the results follow. These are further read-outs of the screen, such as a control signal, another cell line or another target. No call is given for them. Compounds called inactive in the main read-out are mostly missing here. The note in brackets gives the kind of curve behind each potency; many fits are weak.

The nature of the test: Cell signaling CRE-BLA (Fsk stim). The conditions noted are these: CHO CRE-bla reporter (cAMP response element driving beta-lactamase), forskolin EC10, beta-lactamase ratio; measured here: 460 nm blue channel. Summed up: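 Using CellSensor CRE-bla CHO cells in Opti-MEM with 0.5% dialyzed FBS, compounds were titrated with EC10 NKH 477 for 3 h at 37 °C. CCF4 ratio (460/530 nm) gave %Activity; AC50 derived.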
On to `CC(=O)N1CCCc2cc(S(=O)(=O)N3CCc4ccccc4C3)ccc21`, for which the AC50 (as a rule, the midpoint of the concentration-response curve, whichever way the signal moves) is 5.01 µM [rising, single point].

Take `COc1ccccc1OCc1nc(C#N)c(N2CC(C)CC(C)C2)o1` (configuration not stated): the AC50 was 10 µM [rising, partial curve].

As for `O=S(=O)(Nc1ccn(-c2ccccc2)n1)c1ccc(Br)cc1`, the AC50 is 12.6 µM [falling, single point].

With `CNC(=O)[C@H]1O[C@H](n2cnc3c(NCc4cccc(I)c4)ncnc32)[C@@H](O)[C@@H]1O`, the AC50 is 31.6 µM [rising, partial curve, poor fit].

`COc1ccccc1N1CCN(C(=O)CSc2nnc(NC(=O)C3CC3)s2)CC1`: the AC50 is 0.00398 µM [falling, full curve, poor fit].

Take `COC(=O)c1ccc(OCC2c3cc(OC)c(OC)cc3CCN2C(=O)c2ccco2)cc1` (configuration not stated): the AC50 was 0.316 µM [rising, full curve].

On to `COc1ccc(CNc2ccnc(-c3cccnc3)n2)c(OC)c1`, for which the AC50 was 10 µM [rising, partial curve].

For the compound `Cc1ccc(N2CCCCn3c2nc2c3c(=O)n(CC(=O)O)c(=O)n2C)cc1`, the AC50 is 0.158 µM [falling, single point].

As to `CCOc1ccc(C2C=C(c3ccc(C)cc3)Nc3nnnn32)cc1` (configuration not stated), the AC50 is 12.6 µM [rising, single point].

Take `CN(C)Cc1ccccc1-c1nc(N2CCOCC2)c2ccccc2n1`: the AC50 is 6.31 µM [rising, partial curve].

On to `COc1ncc2nc(-c3cc(F)cc(F)c3)c(=O)n(-c3ccccc3)c2n1`, for which the AC50 is 25.1 µM [rising, partial curve].

In the case of `Cn1c(=O)c(-c2cc(F)cc(F)c2)nc2cnc(Nc3ccccc3)nc21`, the AC50 is 0.631 µM [rising, full curve].

In the case of `CCc1ccc(-c2nc(CN3CCC(C(=O)NCc4ccccc4OC)CC3)c(C)o2)cc1`, the AC50 was 7.94 µM [falling, partial curve].

In the case of `CCOC(=O)N1CCN(C(=O)CCn2nc(-c3ccccc3)ccc2=O)CC1`, the AC50 is 0.1 µM [falling, full curve, poor fit].

`COc1ccc(-n2nc(C(=O)NCC(=O)NCc3ccco3)c3ccccc3c2=O)cc1Cl`: the AC50 is 0.00398 µM [falling, full curve, poor fit].

For `COc1ccc(NC(=O)N2CCCC(c3nc(-c4ccc(C(C)C)cc4)no3)C2)cc1` (configuration not stated), the half-maximal activity concentration (AC50) was 12.6 µM [falling, partial curve, poor fit].

As to `COC(=O)c1ccc(CSc2ccc3nnc(-c4ccccn4)n3n2)o1`, the AC50 is 10 µM [rising, partial curve].

`CCCC(=O)Nc1ccc(NC(=O)C2CC2)cn1`: the AC50 is 25.1 µM [falling, single point].

`O=C(Nc1ccc2c(c1)OCCO2)C1CCN(S(=O)(=O)c2cccs2)CC1`: the AC50 was 0.631 µM [falling, partial curve].

Consider `Cc1ccc(C)c2[nH]c(=O)c(CCNC(=O)c3ccc(S(=O)(=O)N(C)C)cc3)cc12`, for which the AC50 is 25.1 µM [rising, single point].

`Cc1cc(NC(=O)C2CCCCC2C(=O)O)no1` (configuration not stated): the half-maximal activity concentration (AC50) is 2 µM [rising, partial curve].

For the compound `CC(=NCc1ccco1)c1c(C)[nH]n(-c2nc3ccccc3s2)c1=O`, the AC50 was 10 µM [rising, single point].

As to `Cc1cc(/C=N/n2cnnc2)c(C)n1-c1cc(Cl)ccc1Cl`, the AC50 was 3.16 µM [rising, partial curve].

Regarding `Nn1c(SCC(=O)Nc2ccc(F)cc2)nnc1-c1ccccn1`, the AC50 was 2.51 µM [falling, full curve, poor fit].

On to `Cc1nc2nc[nH]n2c(=O)c1NC(=O)c1c(-c2ccccc2Cl)noc1C`, for which the AC50 was 0.01 µM [falling, full curve, poor fit].

On to `CCCCCCn1c(N2CCN(c3cccc(Cl)c3)CC2)nc2c1c(=O)[nH]c(=O)n2C`, for which the AC50 is 6.31 µM [falling, partial curve].

For the compound `CCCCCCC(=O)c1c(C)[nH]c(C(=O)OCC)c1C`, the AC50 is 15.8 µM [rising, single point].

On to `COC(=O)C1=CNC=C(C(=O)OC)C1c1ccccc1Cl`, for which the half-maximal activity concentration (AC50) is 10 µM [rising, partial curve].

Consider `Cc1ccccc1-c1cncnc1N1CCN(C)CC1`, for which the AC50 was 5.01 µM [rising, single point].

Turning to `Cc1cc(C)n(-c2nc3ccccc3c(=O)n2OCc2ccc(F)cc2)n1`, the AC50 is 1.58 µM [falling, partial curve].

In the case of `COc1cccc(-n2nnnc2SCC(=O)Nc2cccc(C)n2)c1`, the AC50 was 3.16 µM [falling, single point].

For the compound `Cc1noc(C)c1-c1ccc2ncnc(N(C)Cc3ccco3)c2c1`, the AC50 is 5.01 µM [rising, partial curve].

Regarding `Cc1nc(SCC(=O)Nc2ccccc2)c2oc3ccccc3c2n1`, the AC50 is 1.26 µM [rising, partial curve].

As to `COc1ccc(CCNC(=O)Cn2nnc(-c3cccc(OC)c3OC)n2)cc1OC`, the AC50 is 12.6 µM [rising, partial curve].

For `CN1CCN(c2ncc3nc(-c4cccs4)c(=O)n(Cc4cccs4)c3n2)CC1`, the AC50 is 1.26 µM [rising, full curve].

For `O=C(COC(=O)c1cccs1)c1ccccc1`, the AC50 was 5.01 µM [falling, single point].

As for `CS(=O)(=O)c1cccc(C(=O)Oc2ccccc2)c1`, the AC50 is 5.01 µM [falling, single point].

For `COC(=O)c1ccc2c(c1)NC(=O)C(N1CCCC1)S2` (configuration not stated), the AC50 was 25.1 µM [rising, single point].

As for `O=C(CSc1nnc(-c2ccncc2)o1)Nc1ccccc1Cl`, the concentration at half-maximal activity (AC50) was 25.1 µM [rising, single point].

As to `CN(C)C=Nc1ncc2c3ccccc3n(Cc3ccccc3)c2c1C#N`, the AC50 was 12.6 µM [rising, single point].

In the case of `c1ccc(CNc2nc(-c3cccnc3)nc3ccccc23)cc1`, the AC50 is 5.01 µM [rising, partial curve].

For `N=C(N=C(N)N)N1CCOCC1`, the AC50 is 10 µM [rising, partial curve].

On to `COc1ccc(Oc2ncc3nc(CCc4ccccc4)c(=O)n(C[C@H]4CCCO4)c3n2)cc1`, for which the AC50 is 0.501 µM [falling, single point].

Regarding `CCSC1(SCC)N=C(N)C2(C#N)C(c3ccc(OC)c(OC)c3OC)C12C#N` (configuration not stated), the AC50 is 10 µM [falling, partial curve].

In the case of `Cc1ccccc1OCC(=O)Nc1ccc(N2CCN(C(=O)C(C)C)CC2)c(Cl)c1`, the half-maximal activity concentration (AC50) was 15.8 µM [falling, single point].

`CN(C)C(=O)c1ccc(-c2nc(N(C)Cc3ccco3)c3ccccc3n2)cc1`: the AC50 is 12.6 µM [rising, partial curve].

Consider `c1ccc(-c2nnc(CSc3nncs3)o2)cc1`, for which the AC50 was 3.98 µM [falling, single point].

For the compound `CC(C)C[C@@H](CC(=O)N[C@H](CC(=O)N[C@@H]1CCCC[C@H]1C(=O)N[C@H](CC(=O)N[C@@H](CCC(=O)O)CC(=O)O)CC(C)C)C(C)C)NC(=O)[C@@H]1CCCC[C@H]1N`, the concentration at half-maximal activity (AC50) was 10 µM [falling, single point].

In the case of `CCOC(=O)c1c(C)oc2cc(Br)c(OC)cc12`, the AC50 was 15.8 µM [rising, single point].

For `COc1ccc2nc(N3CCC(C)CC3)c(C#N)cc2c1`, the AC50 was 10 µM [rising, partial curve].

Regarding `CCOC(=O)N1CCN(C(=O)c2cccc(-n3c(=S)[nH]c4cc(Cl)ccc4c3=O)c2)CC1`, the AC50 is 12.6 µM [rising, single point].

In the case of `COc1ccc(-n2c(=O)c(-c3ccc(Cl)cc3)nc3cncnc32)cc1`, the AC50 was 15.8 µM [rising, partial curve].

As to `CC(=O)Oc1ccc(N2C(=O)CC(N3CCOCC3)C2=O)cc1` (configuration not stated), the AC50 was 0.158 µM [rising, full curve].

Turning to `COc1ccc(C(C)=O)cc1COC(=O)c1cccc(N(C)C)c1`, the AC50 is 10 µM [rising, single point].

Take `Cc1cc(C)nc(NS(=O)(=O)c2ccc(NC(=O)C3CC(=O)N(c4ccccc4)C3)cc2)n1` (configuration not stated): the AC50 was 0.501 µM [rising, partial curve].

In the case of `CSC(=O)CC(=O)NC(=O)c1ccccc1`, the AC50 was 1 µM [falling, full curve].

Consider `Cc1c(C#N)c2ncn(Cc3ccccc3)c(=O)c2n1-c1ccccc1`, for which the AC50 is 15.8 µM [rising, partial curve].

As for `O=C(Nc1ccc(S(=O)(=O)N2CCCc3ccccc32)cc1)C1CCCO1` (configuration not stated), the AC50 is 20 µM [rising, partial curve, poor fit].

For `O=C(NCCCN1CCOCC1)c1cccs1`, the AC50 was 15.8 µM [falling, partial curve].

On to `COc1ccc(-c2cc3nc(C4CCN(C(=O)OC(C)(C)C)CC4)c(C(=O)O)cn3n2)cc1`, for which the AC50 is 3.98 µM [rising, full curve].

For `Cc1ccc(-n2ncc3c(=O)[nH]c(SCC(=O)N4CCN(c5ccccc5)CC4)nc32)cc1`, the AC50 was 25.1 µM [falling, single point].

In the case of `CCOc1ccc(Cc2nc(C)c(CC(=O)N3CCCCC3)c(=O)[nH]2)cc1`, the AC50 is 0.398 µM [falling, partial curve].

Consider `Cc1cc(=O)[nH]c(SCn2nnc3ccccc3c2=O)n1`, for which the AC50 is 12.6 µM [rising, single point].

In the case of `COC(=O)c1ccccc1NC(=O)c1ccccc1NS(C)(=O)=O`, the AC50 is 10 µM [rising, partial curve].

As for `CCOC(=O)C1=C(C)NC2=C(C(=O)c3ccccc32)C1c1cccnc1` (configuration not stated), the AC50 was 0.631 µM [rising, full curve].

As for `CC1(C)CC(=O)c2sc(N3CCCCC3)nc2C1`, the AC50 is 2.51 µM [falling, full curve].

Take `COC(=O)c1ccc(NC(=O)CSc2nnc(-c3ccncc3)n2N)cc1`: the AC50 is 2 µM [falling, full curve].
